## Cell number after 72 h of treatment

Data from the primary screen of doi:10.1371/journal.pone.0140310, rounded.

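Human melanoma cells were exposed to a pair of drugs for 72 h in 1,536-well plates and read by automated microscopy after fixing and staining. Values are the number of DAPI-stained nuclei as a percentage of the DMSO control: 100 is no effect, lower means fewer cells. Concentrations were fixed for each drug; these are the lower of two levels, a fifth of the higher. These are primary screening values without error estimates.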 An unselected part of the screen is shown. An entry leaves out what has no value listed here.

Drug key:
Src-I1: COc1cc2ncnc(Nc3ccc(Oc4ccccc4)cc3)c2cc1OC at 2 µM
BMS-536924: Cc1cc(N2CCOCC2)cc2[nH]c(-c3c(NC[C@@H](O)c4cccc(Cl)c4)cc[nH]c3=O)nc12 at 0.2 µM
gemcitabine: Nc1ccn([C@@H]2O[C@H](CO)[C@@H](O)C2(F)F)c(=O)n1 at 0.0004 µM
everolimus: CO[C@H]1C[C@@H]2CC[C@@H](C)[C@@](O)(O2)C(=O)C(=O)N2CCCC[C@H]2C(=O)O[C@H]([C@H](C)C[C@@H]2CC[C@@H](OCCO)[C@H](OC)C2)CC(=O)[C@H](C)/C=C(\C)[C@@H](O)[C@@H](OC)C(=O)[C@H](C)C[C@H](C)/C=C/C=C/C=C/1C at 0.02 µM
embelin: CCCCCCCCCCCC1=C(O)C(=O)C=C(O)C1=O at 1.2 µM
GW0742: Cc1cc(SCc2sc(-c3ccc(C(F)(F)F)c(F)c3)nc2C)ccc1OCC(=O)O at 2 µM
pioglitazone: CCc1ccc(CCOc2ccc(CC3SC(=O)NC3=O)cc2)nc1 (stereo not given) at 2 µM
BI-D1870: CC(C)CCN1c2nc(Nc3cc(F)c(O)c(F)c3)ncc2N(C)C(=O)C1C (stereo not given) at 0.2 µM
AZD7762: NC(=O)Nc1cc(-c2cccc(F)c2)sc1C(=O)N[C@H]1CCCNC1 at 0.02 µM
lenalidomide: Nc1cccc2c1CN(C1CCC(=O)NC1=O)C2=O (stereo not given) at 1 µM

Combination: BI-D1870 and pioglitazone
IPC-298: 94.3
A375: 78.9
IST-MEL1: 86.8
C32: 90.8
G-361: 106
COLO 792: 91.2
MEL-HO: 87.7
COLO 800: 109
COLO 829: 103

Combination: lenalidomide and Src-I1
IPC-298: 98.7
A375: 116
IST-MEL1: 97.8
C32: 92.4
G-361: 114
COLO 792: 80.2
MEL-HO: 74.1
COLO 800: 118
COLO 829: 94.3

Combination: Src-I1 and BMS-536924
IPC-298: 88.5
A375: 88.7
IST-MEL1: 104
C32: 109
G-361: 89.2
COLO 792: 72.2
MEL-HO: 90.3
COLO 800: 65.6
COLO 829: 107

Combination: BI-D1870 and AZD7762
IPC-298: 107
A375: 68.6
IST-MEL1: 103
C32: 82.2
G-361: 115
COLO 792: 86.6
MEL-HO: 136
COLO 800: 98.3
COLO 829: 113

Combination: embelin and GW0742
IPC-298: 97.0
A375: 97.4
IST-MEL1: 97.4
C32: 98.2
G-361: 100
COLO 792: 100
MEL-HO: 92.3
COLO 800: 90.1
COLO 829: 97.3

Combination: gemcitabine and GW0742
IPC-298: 88.0
IST-MEL1: 70.5
C32: 93.4
G-361: 86.7
COLO 792: 98.3
MEL-HO: 82.8
COLO 800: 94.2
COLO 829: 91.2

Combination: embelin and everolimus
IPC-298: 84.2
IST-MEL1: 86.0
C32: 90.1
G-361: 79.9
COLO 792: 49.2
MEL-HO: 82.7
COLO 800: 74.0
COLO 829: 89.0

Combination: BMS-536924 and gemcitabine
IPC-298: 87.2
A375: 108
IST-MEL1: 80.3
C32: 94.5
G-361: 95.9
COLO 792: 79.0
MEL-HO: 79.1
COLO 800: 49.0
COLO 829: 114

Combination: AZD7762 and embelin
IPC-298: 112
A375: 74.0
IST-MEL1: 117
C32: 91.6
G-361: 106
COLO 792: 99.6
MEL-HO: 88.4
COLO 800: 75.4
COLO 829: 107

Combination: lenalidomide and everolimus
IPC-298: 71.2
A375: 58.3
IST-MEL1: 84.1
C32: 77.5
G-361: 71.2
COLO 792: 51.3
MEL-HO: 71.1
COLO 800: 72.2
COLO 829: 63.1

Combination: BI-D1870 and BMS-536924
IPC-298: 95.2
A375: 78.2
IST-MEL1: 100
C32: 97.4
G-361: 91.3
COLO 792: 84.3
MEL-HO: 88.0
COLO 800: 28.8
COLO 829: 116

Combination: GW0742 and Src-I1
IPC-298: 95.5
A375: 114
IST-MEL1: 94.0
C32: 114
G-361: 97.6
COLO 792: 100
MEL-HO: 87.9
COLO 800: 103
COLO 829: 103

Combination: lenalidomide and gemcitabine
IPC-298: 84.6
A375: 109
IST-MEL1: 59.9
C32: 110
G-361: 84.3
COLO 792: 106
MEL-HO: 76.0
COLO 800: 52.2
COLO 829: 75.6

Combination: gemcitabine and pioglitazone
IPC-298: 93.3
IST-MEL1: 71.4
C32: 95.6
G-361: 79.7
COLO 792: 109
MEL-HO: 57.3
COLO 800: 126
COLO 829: 107

Combination: everolimus and gemcitabine
IPC-298: 60.3
A375: 41.3
IST-MEL1: 59.0
C32: 95.0
G-361: 54.7
COLO 792: 52.6
MEL-HO: 64.4
COLO 800: 85.1
COLO 829: 68.6

Combination: everolimus and AZD7762
IPC-298: 78.1
A375: 17.1
IST-MEL1: 87.1
C32: 96.4
G-361: 87.0
COLO 792: 56.4
MEL-HO: 73.0
COLO 800: 43.8
COLO 829: 111

Combination: embelin and BMS-536924
IPC-298: 95.0
A375: 103
IST-MEL1: 104
C32: 103
G-361: 96.7
COLO 792: 87.4
MEL-HO: 123
COLO 800: 51.0
COLO 829: 99.6

Combination: everolimus and BMS-536924
IPC-298: 69.1
A375: 46.7
IST-MEL1: 77.2
C32: 70.2
G-361: 71.7
COLO 792: 51.0
MEL-HO: 61.9
COLO 800: 60.7
COLO 829: 85.5

Combination: embelin and pioglitazone
IPC-298: 100
A375: 105
IST-MEL1: 102
C32: 109
G-361: 79.3
COLO 792: 95.0
MEL-HO: 116
COLO 800: 92.7
COLO 829: 100

Combination: AZD7762 and gemcitabine
IPC-298: 81.0
A375: 61.1
IST-MEL1: 70.1
C32: 98.1
G-361: 92.5
COLO 792: 78.5
MEL-HO: 79.2
COLO 800: 54.8
COLO 829: 73.6

Combination: embelin and lenalidomide
IPC-298: 104
A375: 83.3
IST-MEL1: 105
C32: 100
G-361: 105
COLO 792: 118
MEL-HO: 101
COLO 800: 79.2
COLO 829: 112

Combination: pioglitazone and AZD7762
IPC-298: 98.1
A375: 65.4
IST-MEL1: 120
C32: 110
G-361: 111
COLO 792: 93.2
MEL-HO: 86.5
COLO 800: 93.9
COLO 829: 105

Combination: pioglitazone and BMS-536924
IPC-298: 96.4
A375: 86.8
IST-MEL1: 110
C32: 98.3
G-361: 101
COLO 792: 88.7
MEL-HO: 98.8
COLO 800: 59.6
COLO 829: 93.3

Combination: GW0742 and BMS-536924
IPC-298: 91.0
A375: 91.8
IST-MEL1: 88.6
C32: 93.8
G-361: 103
COLO 792: 96.1
MEL-HO: 105
COLO 800: 40.2
COLO 829: 97.2

Combination: AZD7762 and Src-I1
IPC-298: 102
A375: 50.1
IST-MEL1: 120
C32: 83.8
G-361: 99.8
COLO 792: 91.0
MEL-HO: 95.5
COLO 800: 81.8
COLO 829: 74.3

Combination: pioglitazone and lenalidomide
IPC-298: 104
A375: 100
IST-MEL1: 102
C32: 105
G-361: 107
COLO 792: 101
MEL-HO: 108
COLO 800: 58.7
COLO 829: 73.0

Combination: BI-D1870 and GW0742
IPC-298: 105
A375: 106
IST-MEL1: 95.0
C32: 105
G-361: 95.2
COLO 792: 90.7
MEL-HO: 83.0
COLO 800: 115
COLO 829: 97.0

Combination: AZD7762 and GW0742
IPC-298: 112
A375: 50.6
IST-MEL1: 114
C32: 88.7
G-361: 105
COLO 792: 106
MEL-HO: 97.1
COLO 800: 93.2
COLO 829: 98.7

Combination: GW0742 and everolimus
IPC-298: 102
IST-MEL1: 104
C32: 87.0
G-361: 101
COLO 792: 101
MEL-HO: 100
COLO 800: 132
COLO 829: 96.9

Combination: lenalidomide and GW0742
IPC-298: 100
A375: 112
IST-MEL1: 99.5
C32: 111
G-361: 108
COLO 792: 121
MEL-HO: 109
COLO 800: 66.4
COLO 829: 103

Combination: Src-I1 and gemcitabine
IPC-298: 92.5
IST-MEL1: 70.2
C32: 119
G-361: 93.6
COLO 792: 89.3
MEL-HO: 82.7
COLO 800: 73.9
COLO 829: 96.2

Combination: BI-D1870 and everolimus
IPC-298: 70.9
IST-MEL1: 92.0
C32: 92.2
G-361: 63.2
COLO 792: 47.7
MEL-HO: 76.0
COLO 800: 72.9
COLO 829: 82.7

For reference, 4 entries once more:

- everolimus and gemcitabine | IPC-298: 60.3; A375: 41.3; IST-MEL1: 59.0; C32: 95.0; G-361: 54.7; COLO 792: 52.6; MEL-HO: 64.4; COLO 800: 85.1; COLO 829: 68.6
- everolimus and BMS-536924 | IPC-298: 69.1; A375: 46.7; IST-MEL1: 77.2; C32: 70.2; G-361: 71.7; COLO 792: 51.0; MEL-HO: 61.9; COLO 800: 60.7; COLO 829: 85.5
- lenalidomide and everolimus | IPC-298: 71.2; A375: 58.3; IST-MEL1: 84.1; C32: 77.5; G-361: 71.2; COLO 792: 51.3; MEL-HO: 71.1; COLO 800: 72.2; COLO 829: 63.1
- pioglitazone and AZD7762 | IPC-298: 98.1; A375: 65.4; IST-MEL1: 120; C32: 110; G-361: 111; COLO 792: 93.2; MEL-HO: 86.5; COLO 800: 93.9; COLO 829: 105